The source of these data is article PMC10235437.

The chains behind the UniProt entries cited, without tags or fusion partners.
UniProt Q13951: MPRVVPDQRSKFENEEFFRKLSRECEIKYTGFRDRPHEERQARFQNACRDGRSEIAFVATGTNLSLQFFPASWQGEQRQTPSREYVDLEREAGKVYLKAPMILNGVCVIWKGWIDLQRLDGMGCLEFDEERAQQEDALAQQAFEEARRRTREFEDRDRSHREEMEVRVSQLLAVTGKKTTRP

Results are given in words; binding and its absence hold for the method and conditions named. Binding seen in cells or lysates may run through a third protein. Some binding calls cover weakened binding; strength is not graded here.

In this experiment the target is T1, E2F transcription factor 7 (E2F7), endogenous (human (endogenous in HONE-1 and SUNE-1)) (UniProt Q96AV8).
T1 sequence: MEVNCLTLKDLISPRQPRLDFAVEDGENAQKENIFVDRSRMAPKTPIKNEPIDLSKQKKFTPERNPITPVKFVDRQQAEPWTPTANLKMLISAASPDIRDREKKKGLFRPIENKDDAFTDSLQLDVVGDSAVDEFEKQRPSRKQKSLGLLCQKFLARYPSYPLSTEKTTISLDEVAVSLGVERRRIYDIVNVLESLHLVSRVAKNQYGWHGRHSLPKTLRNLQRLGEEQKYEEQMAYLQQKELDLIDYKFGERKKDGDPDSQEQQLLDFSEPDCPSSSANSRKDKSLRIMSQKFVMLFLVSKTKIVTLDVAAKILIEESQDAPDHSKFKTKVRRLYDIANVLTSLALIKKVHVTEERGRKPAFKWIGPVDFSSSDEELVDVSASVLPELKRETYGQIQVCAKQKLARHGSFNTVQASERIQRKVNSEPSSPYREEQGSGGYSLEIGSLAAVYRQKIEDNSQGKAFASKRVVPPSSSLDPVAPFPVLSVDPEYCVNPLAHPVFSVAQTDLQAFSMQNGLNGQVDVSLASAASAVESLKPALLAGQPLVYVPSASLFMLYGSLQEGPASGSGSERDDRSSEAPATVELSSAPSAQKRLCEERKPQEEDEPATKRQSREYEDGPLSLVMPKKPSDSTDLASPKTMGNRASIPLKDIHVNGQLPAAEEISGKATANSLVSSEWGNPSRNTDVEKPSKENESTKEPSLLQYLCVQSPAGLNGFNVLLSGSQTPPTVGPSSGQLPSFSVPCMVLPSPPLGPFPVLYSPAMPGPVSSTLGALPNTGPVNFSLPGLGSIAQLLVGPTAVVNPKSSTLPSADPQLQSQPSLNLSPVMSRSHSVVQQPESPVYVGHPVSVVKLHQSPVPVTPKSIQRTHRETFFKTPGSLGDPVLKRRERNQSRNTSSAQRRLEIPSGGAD
The experiment can be described thus: co-IP; anti-E2F7 antibodies or normal rabbit IgG, endogenous proteins in HONE-1 and SUNE-1 lysates, Western blotting. (In western blotting, separated proteins are transferred to a membrane and probed.)

Consider “Core-binding factor subunit beta (CBFB), endogenous (from UniProt Q13951 1-182)”, for which the binding result is listed as “binds”.
